The campaign covered roughly 300,000 compounds. About 5,200 (1.7%) were called active. The inconclusive results got no clear call from the source; some entries with a clear call stand among them for comparison.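 How the source made its calls: active means mean replicate activation of at least 50% with a set share of replicates each reaching 50%; inconclusive means only one of those two conditions met; inactive means mean below 50% and too few replicates reaching it.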
assay: HSF-1 activators, primary screen, NIH3T3-HGL cells, MG132 stress, luminescence, single point (AID 504408); conditions: NIH3T3-HGL HSF-1 luciferase reporter, MG132, 8 h; at 9 µM; hits give high values; 100% = twice DMSO control signal;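 further: 0% = median of the neutral control wells and 100% = twice that signal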

Q: Which activation does the source give for `CN(C)c1ccc(C(CNC(=O)c2ccccc2)c2c[nH]c3ccccc23)cc1` (stereo unspecified) here?
A: inconclusive: 52%

Q: Which activation does the source give for `O=[N+]([O-])/C=C\c1ccc(N2CCCC2)c(F)c1` here?
A: active: 79.2%

Q: With `C=CCc1ccc(OCc2ccc(C(=O)Nc3ccc(NC(C)=O)cc3)o2)c(OC)c1` as the compound, how does the activation read?
A: active: 57.2%

Q: Which activation does the source give for `CC(=O)c1cccc(NC(=O)C2C3C=CC(C3)C2C(=O)O)c1` (stereo unspecified) here?
A: inconclusive: 51.2%

Q: Which activation does the source give for `Fc1ccccc1-c1ccc(/C=N/Nc2nc3ccccc3[nH]2)o1` here?
A: active: 384%

Q: For `O=S(=O)(NC1CCCCC1N1CCN(c2cccc(Cl)c2)CC1)c1ccccc1` (stereo unspecified), which activation is on record?
A: inconclusive: 50.5%

Q: For `O=[N+]([O-])c1ccc2nc(-c3ccccc3)oc2c1`, which activation is on record?
A: active: 61.7%

Q: Which activation does the source give for `COc1cc(NC(=O)C2CCCN(S(=O)(=O)c3ccc4[nH]c(=O)ccc4c3)C2)cc(OC)c1` (stereo unspecified) here?
A: inactive: 10.7%

Q: Which activation does the source give for `O=C(NCc1cccnc1)/C(=C/c1ccc(-c2cccc(Cl)c2)o1)S(=O)(=O)c1ccccc1` here?
A: inconclusive: 56.3%

Q: Which activation does the source give for `CC(C)(C)c1ccc(/C=C/C(=O)Nc2ncccn2)cc1` here?
A: inconclusive: 52.7%

Q: For `O=C(CCC1CCCCC1)NCc1ccncc1`, which activation is on record?
A: inactive: 15.4%

Q: For `CC(OC(=O)/C=C/c1ccc2ccccc2n1)C(=O)Nc1ccc(S(N)(=O)=O)cc1` (stereo unspecified), which activation is on record?
A: inconclusive: 52.5%

Q: For `Oc1ccc(/C=N/NC(=S)N/N=C/c2ccc(O)cc2)cc1`, which activation is on record?
A: inactive: 10.1%

Q: With `O=[N+]([O-])c1cccc(C=NNc2ccc3ccccc3n2)c1O` as the compound, how does the activation read?
A: inconclusive: 41.5%

Q: With `Nc1nc(-c2nc3ccccc3[nH]2)cs1` as the compound, how does the activation read?
A: inconclusive: 50.4%

Q: With `CC(Oc1ccc(Cl)cc1Cl)C(=O)NCCCCc1ccccc1` (stereo unspecified) as the compound, how does the activation read?
A: inconclusive: 55.5%

Q: Which activation does the source give for `COc1ccc(-n2c(C)cc(/C=C3\SC(=S)N(Cc4ccco4)C3=O)c2C)cc1` here?
A: inconclusive: 52.9%

Q: Which activation does the source give for `COc1ccccc1N1CCN(Cc2cccs2)CC1` here?
A: inconclusive: 50.5%

Q: For `O=C(CN1c2ccccc2S(=O)(=O)c2ccccc21)NCc1ccc(F)cc1`, which activation is on record?
A: inconclusive: 51.2%

Q: Which activation does the source give for `O=C(Nc1cccn(Cc2c(F)cccc2Cl)c1=O)NC1CCCCC1` here?
A: inconclusive: 51.1%

Q: For `CCN(CCCNC(=O)COc1cc(=O)n(C)c2ccccc12)c1cccc(C)c1`, which activation is on record?
A: active: 162%

Q: Which activation does the source give for `O=C(CSc1nnc(-c2ccc(F)cc2)c2ccccc12)Nc1ccccc1` here?
A: active: 82.7%

Q: Which activation does the source give for `O=C(COc1ccc(Br)cc1CO)N1CCCc2ccccc21` here?
A: inconclusive: 52.9%

Q: For `COc1ccc(Br)cc1CN1CCCCCCC1`, which activation is on record?
A: inconclusive: 62.5%

Q: Which activation does the source give for `O=[N+]([O-])c1ccc(S(=O)(=O)N2CCSC2c2ccco2)cc1` (stereo unspecified) here?
A: active: 50.6%

Q: Which activation does the source give for `CCc1c(C)sc(NC(=S)Nc2nc(C)cc(C)n2)c1C(=O)OC` here?
A: inconclusive: 63.2%

Q: Which activation does the source give for `CC(C)(C)c1ccc(COc2ccsc2C(=O)O)cc1` here?
A: inconclusive: 50.2%

Q: Which activation does the source give for `Cc1noc(C)c1C(=O)Nc1cccc2ncccc12` here?
A: inactive: -0.596%

Q: For `O=C(Nc1ncc(Cc2ccccc2)s1)C1COc2ccccc2O1` (stereo unspecified), which activation is on record?
A: inconclusive: 52.2%

Q: Which activation does the source give for `N#Cc1ccc(OCc2noc(-c3ccsc3)n2)cc1` here?
A: inconclusive: 51.5%

Q: With `O=C(O)c1ccc(/C=N/Nc2cccc(C(F)(F)F)c2)cc1` as the compound, how does the activation read?
A: inconclusive: 57.1%

Q: With `Cc1ccc(NC(=O)/C(C#N)=C/c2ccccc2C(F)(F)F)cc1` as the compound, how does the activation read?
A: inconclusive: 57.4%

Q: Which activation does the source give for `CCOC(=O)N1CCC(N(CCN(C)C)C(=S)Nc2ccc(Oc3ccccc3)cc2)CC1` here?
A: inactive: -1.72%

Q: For `CN1CCN(c2oc(-c3ccccc3)nc2S(=O)(=O)c2ccc(Br)cc2)CC1`, which activation is on record?
A: inactive: -5.46%

Q: Which activation does the source give for `O=C(c1cc(Cl)ccc1Cl)N1CCc2ccccc21` here?
A: inactive: -7.06%

Q: For `CC1=NN(c2ccccc2)C(=O)C1N=Nc1cccc(O)c1` (stereo unspecified), which activation is on record?
A: inconclusive: 52.1%

Q: Which activation does the source give for `CCOC(=O)N1CCN(C(=O)CCCCCn2c(=S)[nH]c3ccsc3c2=O)CC1` here?
A: inactive: 4.21%

Q: With `COc1ccc(C(=O)Cc2ccc(F)cc2)c(OC)c1` as the compound, how does the activation read?
A: inconclusive: 51.9%

Q: For `CCN(CC)C(=S)Nc1ccc(Cl)c(Cl)c1`, which activation is on record?
A: inconclusive: 54.7%

Q: Which activation does the source give for `Cc1cccc(N/C(N)=N/c2nc3c(c(=O)[nH]2)CCCC3)c1` here?
A: inactive: 10.3%

Q: Which activation does the source give for `CCOc1cccc(Oc2ncccc2C(=O)/C(C#N)=C/N(C)C)c1` here?
A: inactive: 12.3%

Q: Which activation does the source give for `CCOC(=O)/C(C#N)=C/c1cn(CCC(=O)O)nc1-c1ccc(Cl)cc1` here?
A: inconclusive: 52.1%

Q: With `Cc1cc2c(cc1C)-c1nnnn1C(C)(C)C2` as the compound, how does the activation read?
A: inconclusive: 52.1%

Q: Which activation does the source give for `CC(C)=NN1C(=O)c2ccccc2NC1(C)C` here?
A: inconclusive: 52.7%

Q: For `CC(=O)Nc1cccc(-c2csc(Nc3ccc(Cl)cn3)n2)c1`, which activation is on record?
A: inconclusive: 53.9%

Q: Which activation does the source give for `COC(=O)c1cc(OC)c(OC)cc1NC(=S)NC(=O)c1ccco1` here?
A: active: 72.6%

Q: Which activation does the source give for `Cc1cc(NC(=O)Nc2ccc(F)c(Cl)c2)no1` here?
A: inactive: 17.3%

Q: For `Cc1noc(/C=C/c2ccccn2)c1[N+](=O)[O-]`, which activation is on record?
A: inconclusive: 57.3%

Q: With `CCOc1cccc(/C=N/N2C(=O)CSC2=S)c1O` as the compound, how does the activation read?
A: inconclusive: 53.8%

Q: Which activation does the source give for `c1ccc2c(Nc3nc4c(s3)CCCC4)cccc2c1` here?
A: inconclusive: 55.2%

Q: For `Cc1ccc(NCc2nc3ccccc3n2C)cc1C`, which activation is on record?
A: inconclusive: 50%

Q: Which activation does the source give for `COC(=O)Cn1c2ccc(OC)cc2c2nc(C)sc21` here?
A: active: 88%

Q: Which activation does the source give for `O=C(NCCOc1ccccc1F)C1CCC(=O)N(CC2CCCCC2)C1` (stereo unspecified) here?
A: inconclusive: 51.5%

Q: With `CN(C)c1ccc(C(=O)/C=C/c2ccc(Br)cc2)cc1` as the compound, how does the activation read?
A: inconclusive: 52.5%

Q: With `COCCNC(=O)/C(C#N)=C/c1ccc(OC(=O)c2cccs2)c(OC)c1` as the compound, how does the activation read?
A: inconclusive: 107%

Q: For `O=C(OCN1C(=O)c2ccccc2C1=O)c1cccc(S(=O)(=O)N2CCOCC2)c1`, which activation is on record?
A: inactive: 8.54%

Q: With `COc1ccc(C(=O)O/N=C(\N)c2ccccc2)cc1OC` as the compound, how does the activation read?
A: active: 55.9%

Q: Which activation does the source give for `COc1cc2c3c(c1OC)C1(C=CC(=O)C=C1)CC3N(C(=O)c1ccccc1)CC2` (stereo unspecified) here?
A: active: 55%

Q: With `COC(=O)C(C)Sc1nc2c(c(=O)n(C)c(=O)n2C)n1CCC(C)C` (stereo unspecified) as the compound, how does the activation read?
A: inconclusive: 50.1%

Q: Which activation does the source give for `CC(=O)c1c(C)[nH]c(C(=O)Nc2cccc(C)n2)c1C` here?
A: inconclusive: 50.4%

Q: With `Cc1ccc(S(=O)(=O)N2CCN(C(=O)c3c(-c4ccccc4)noc3C)CC2)cc1` as the compound, how does the activation read?
A: inconclusive: 50.6%

Source: PubChem BioAssay AID504408 (Broad Institute, 2011)
